Consider 4 molecules from PMC4938514.

These are yes or no findings as the source states them, for the method shown. For some of these results: Binding seen in cells or lysates may run through a third protein. Some results given as binding are weak or reduced against the parent protein; the word gives no strength. For some of these results: Where a sequence is shown, tags or fusion partners need not be part of it.

Assay [1] addresses T1, Sema6A-FL (full-length Semaphorin-6A), as transfected for the in situ binding and the Sema6A/PlxnA2 co-immunoprecipitations (UniProt O35464).
T1 sequence: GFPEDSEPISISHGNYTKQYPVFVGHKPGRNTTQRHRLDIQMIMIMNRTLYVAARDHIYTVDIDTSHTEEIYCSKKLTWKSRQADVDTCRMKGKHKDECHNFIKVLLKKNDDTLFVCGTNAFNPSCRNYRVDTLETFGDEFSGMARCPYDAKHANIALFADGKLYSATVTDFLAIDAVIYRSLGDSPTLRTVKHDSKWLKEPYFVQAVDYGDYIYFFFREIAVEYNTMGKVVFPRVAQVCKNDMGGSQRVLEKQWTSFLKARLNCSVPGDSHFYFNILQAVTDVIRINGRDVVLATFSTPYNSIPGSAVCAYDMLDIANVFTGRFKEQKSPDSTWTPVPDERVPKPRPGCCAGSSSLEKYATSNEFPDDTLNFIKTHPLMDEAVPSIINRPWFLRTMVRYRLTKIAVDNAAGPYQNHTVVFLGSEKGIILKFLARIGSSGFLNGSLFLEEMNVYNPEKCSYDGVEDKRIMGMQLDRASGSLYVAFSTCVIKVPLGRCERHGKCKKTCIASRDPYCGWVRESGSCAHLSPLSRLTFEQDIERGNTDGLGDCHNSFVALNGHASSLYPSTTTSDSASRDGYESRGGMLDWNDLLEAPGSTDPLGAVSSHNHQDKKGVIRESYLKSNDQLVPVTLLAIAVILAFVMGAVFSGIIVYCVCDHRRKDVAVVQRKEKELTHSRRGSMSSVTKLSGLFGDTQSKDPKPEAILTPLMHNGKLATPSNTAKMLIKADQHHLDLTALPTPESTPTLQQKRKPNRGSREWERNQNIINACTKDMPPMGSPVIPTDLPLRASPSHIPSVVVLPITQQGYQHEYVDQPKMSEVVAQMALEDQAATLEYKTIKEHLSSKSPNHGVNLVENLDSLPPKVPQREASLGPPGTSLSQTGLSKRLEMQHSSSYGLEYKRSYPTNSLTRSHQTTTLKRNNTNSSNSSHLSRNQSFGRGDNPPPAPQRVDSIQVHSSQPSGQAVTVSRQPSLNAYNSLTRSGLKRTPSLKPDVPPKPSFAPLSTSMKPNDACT
Put plainly: in situ binding of AP fusion proteins to cells; conditioned media of HEK293 cells with Sema6A-AP or PlxnA2-AP applied to COS-7 cells transfected with combinations of Sema6A and PlxnA2 constructs; bound AP seen in situ.

Assay [2] has as its target endogenous PlxnA2 of mouse cerebellum (mouse (endogenous in cerebellum)) (UniProt P70207). Put plainly: co-IP; endogenous proteins; lysates of P5 mouse cerebellum or EGL explants (50 mM Tris pH 7.6; 1mM EDTA, 1% Triton x-100); 16h at 4°C with anti-PlexinA2.
Assay [3] concerns the target PlxnA2-FL (full-length Plexin-A2) (UniProt P70207). Put plainly: co-IP; co-transfected COS-7 cells lysed in NP-40 buffer (10mM HEPES pH 7.5; 100mM NaCl, 2mM EDTA, 0.5% NP-40); 2h at 4°C with anti-PlexinA2 or anti-Sema6A; protein A/G sepharose; blots with anti-PlxnA2 and anti-Sema6A.

B1: PlxnA2-EC-AP-Fc (extracellular domain of PlxnA2 fused to alkaline phosphatase) (Fc fusion, UniProt P70207 35-1237)
chain: MPQYSTFHSENRDWTFNHLTVHRRTGAVYVGAINRVYKLTGNLTIQVAHKTGPEEDNKACYPPLIVQPCSEVLTLTNNVNKLLIIDYSENRLLACGSLYQGVCKLLRLDDLFILVEPSHKKEHYLSSVNKTGTMYGVIVRSEGEDGKLFIGTAVDGKQDYFPTLSSRKLPRDPESSAMLDYELHSDFVSSLIKIPSDTLALVSHFDIFYIYGFASGGFVYFLTVQPETPDGMAINSAGDLFYTSRIVRLCKDDPKFHSYVSLPFGCTRAGVEYRLLQAAYLAKPGEALAQAFNISSDEDVLFAIFSKGQKQYHHPPDDSALCAFPIRAINLQIKERLQSCYHGEGNLELNWLLGKDVQCTKAPVPIDDNFCGLDINQPLGGSTPVEGLTLYTTSRDRLTSVASYVYNGYSVVFVGTKSGKLKKIRADGPPHGGVQYEMVSVFKDGSPILRDMAFSINQLYLYVMSERQVTRVPVESCEQYTTCGECLSSGDPHCGWCALHNMCSRRDKCQRAWEANRFAASISQCMSLEVHPNSISVSDHSRLLSLVVNDAPNLSEGIACAFGNLTEVEGQVSGSQVICISPGPKDVPVIPLDQDWFGLELQLRSKETGKIFVSTEFKFYNCSAHQLCLSCVNSAFRCHWCKYRNLCTHDPTTCSFQEGRINVSEDCPQLVPTEEILIPVGEVKPITLKARNLPQPQSGQRGYECVLSIQGAVHRVPALRFNSSSVQCQNSSYQYDGMDISNLAVDFAVVWNGNFIIDNPQDLKVHLYKCAAQRESCGLCLKADHKFECGWCSGERRCTLHQHCPSTSSPWLDWSSHNVKCSNPQITEILTVSGPPEGGTRVTIHGVNLGLDFSEIAHHVQVAGVPCTPIPGEYIIAEQIVCEMGHAVIGTTSGPVRLCIGECKPEFMTKSHQQYTFVNPSVLSLSPIRGPESGGTMVTITGHYLGAGSSVAVYLGNQTCEFYGRSMNEIVCVSPPSSNGLGPVPVSVSVDRARVDSSLQFEYIDDPRVQRIEPEWSITSGHTPLTITGFNLDVIQEPRVRVKFNGKESVNVCTVVNTTTLTCLAPSLTSDYRPGLDTVERPDEFGFLFNNVQSLLIYNDTKFIYYPNPTFELLSPTGILDQKPGSPIILKGKNLCPPASGGAKLNYTVMIGETPCTVTVSETQLLCEPPNLTGQHKVMVHVGGMVFSPGSVSVISDSLLTLP
With B1, the binding entry in assay [1] is given as “binds”.

B2: endogenous Sema6A of mouse cerebellum (protein, UniProt O35464 19-1031)
chain: GFPEDSEPISISHGNYTKQYPVFVGHKPGRNTTQRHRLDIQMIMIMNRTLYVAARDHIYTVDIDTSHTEEIYCSKKLTWKSRQADVDTCRMKGKHKDECHNFIKVLLKKNDDTLFVCGTNAFNPSCRNYRVDTLETFGDEFSGMARCPYDAKHANIALFADGKLYSATVTDFLAIDAVIYRSLGDSPTLRTVKHDSKWLKEPYFVQAVDYGDYIYFFFREIAVEYNTMGKVVFPRVAQVCKNDMGGSQRVLEKQWTSFLKARLNCSVPGDSHFYFNILQAVTDVIRINGRDVVLATFSTPYNSIPGSAVCAYDMLDIANVFTGRFKEQKSPDSTWTPVPDERVPKPRPGCCAGSSSLEKYATSNEFPDDTLNFIKTHPLMDEAVPSIINRPWFLRTMVRYRLTKIAVDNAAGPYQNHTVVFLGSEKGIILKFLARIGSSGFLNGSLFLEEMNVYNPEKCSYDGVEDKRIMGMQLDRASGSLYVAFSTCVIKVPLGRCERHGKCKKTCIASRDPYCGWVRESGSCAHLSPLSRLTFEQDIERGNTDGLGDCHNSFVALNGHASSLYPSTTTSDSASRDGYESRGGMLDWNDLLEAPGSTDPLGAVSSHNHQDKKGVIRESYLKSNDQLVPVTLLAIAVILAFVMGAVFSGIIVYCVCDHRRKDVAVVQRKEKELTHSRRGSMSSVTKLSGLFGDTQSKDPKPEAILTPLMHNGKLATPSNTAKMLIKADQHHLDLTALPTPESTPTLQQKRKPNRGSREWERNQNIINACTKDMPPMGSPVIPTDLPLRASPSHIPSVVVLPITQQGYQHEYVDQPKMSEVVAQMALEDQAATLEYKTIKEHLSSKSPNHGVNLVENLDSLPPKVPQREASLGPPGTSLSQTGLSKRLEMQHSSSYGLEYKRSYPTNSLTRSHQTTTLKRNNTNSSNSSHLSRNQSFGRGDNPPPAPQRVDSIQVHSSQPSGQAVTVSRQPSLNAYNSLTRSGLKRTPSLKPDVPPKPSFAPLSTSMKPNDACT
In the case of B2, in assay [2], the binding result is “binds”.

B3: myc-tagged Sema6A-I322E (protein, UniProt O35464 19-1031)
chain: GFPEDSEPISISHGNYTKQYPVFVGHKPGRNTTQRHRLDIQMIMIMNRTLYVAARDHIYTVDIDTSHTEEIYCSKKLTWKSRQADVDTCRMKGKHKDECHNFIKVLLKKNDDTLFVCGTNAFNPSCRNYRVDTLETFGDEFSGMARCPYDAKHANIALFADGKLYSATVTDFLAIDAVIYRSLGDSPTLRTVKHDSKWLKEPYFVQAVDYGDYIYFFFREIAVEYNTMGKVVFPRVAQVCKNDMGGSQRVLEKQWTSFLKARLNCSVPGDSHFYFNILQAVTDVIRINGRDVVLATFSTPYNSEPGSAVCAYDMLDIANVFTGRFKEQKSPDSTWTPVPDERVPKPRPGCCAGSSSLEKYATSNEFPDDTLNFIKTHPLMDEAVPSIINRPWFLRTMVRYRLTKIAVDNAAGPYQNHTVVFLGSEKGIILKFLARIGSSGFLNGSLFLEEMNVYNPEKCSYDGVEDKRIMGMQLDRASGSLYVAFSTCVIKVPLGRCERHGKCKKTCIASRDPYCGWVRESGSCAHLSPLSRLTFEQDIERGNTDGLGDCHNSFVALNGHASSLYPSTTTSDSASRDGYESRGGMLDWNDLLEAPGSTDPLGAVSSHNHQDKKGVIRESYLKSNDQLVPVTLLAIAVILAFVMGAVFSGIIVYCVCDHRRKDVAVVQRKEKELTHSRRGSMSSVTKLSGLFGDTQSKDPKPEAILTPLMHNGKLATPSNTAKMLIKADQHHLDLTALPTPESTPTLQQKRKPNRGSREWERNQNIINACTKDMPPMGSPVIPTDLPLRASPSHIPSVVVLPITQQGYQHEYVDQPKMSEVVAQMALEDQAATLEYKTIKEHLSSKSPNHGVNLVENLDSLPPKVPQREASLGPPGTSLSQTGLSKRLEMQHSSSYGLEYKRSYPTNSLTRSHQTTTLKRNNTNSSNSSHLSRNQSFGRGDNPPPAPQRVDSIQVHSSQPSGQAVTVSRQPSLNAYNSLTRSGLKRTPSLKPDVPPKPSFAPLSTSMKPNDACT
In the case of B3, the binding entry in assay [3] is listed as “binds”.

B4: myc-tagged Sema6A-K393D (protein, UniProt O35464 19-1031)
chain: GFPEDSEPISISHGNYTKQYPVFVGHKPGRNTTQRHRLDIQMIMIMNRTLYVAARDHIYTVDIDTSHTEEIYCSKKLTWKSRQADVDTCRMKGKHKDECHNFIKVLLKKNDDTLFVCGTNAFNPSCRNYRVDTLETFGDEFSGMARCPYDAKHANIALFADGKLYSATVTDFLAIDAVIYRSLGDSPTLRTVKHDSKWLKEPYFVQAVDYGDYIYFFFREIAVEYNTMGKVVFPRVAQVCKNDMGGSQRVLEKQWTSFLKARLNCSVPGDSHFYFNILQAVTDVIRINGRDVVLATFSTPYNSIPGSAVCAYDMLDIANVFTGRFKEQKSPDSTWTPVPDERVPKPRPGCCAGSSSLEKYATSNEFPDDTLNFIDTHPLMDEAVPSIINRPWFLRTMVRYRLTKIAVDNAAGPYQNHTVVFLGSEKGIILKFLARIGSSGFLNGSLFLEEMNVYNPEKCSYDGVEDKRIMGMQLDRASGSLYVAFSTCVIKVPLGRCERHGKCKKTCIASRDPYCGWVRESGSCAHLSPLSRLTFEQDIERGNTDGLGDCHNSFVALNGHASSLYPSTTTSDSASRDGYESRGGMLDWNDLLEAPGSTDPLGAVSSHNHQDKKGVIRESYLKSNDQLVPVTLLAIAVILAFVMGAVFSGIIVYCVCDHRRKDVAVVQRKEKELTHSRRGSMSSVTKLSGLFGDTQSKDPKPEAILTPLMHNGKLATPSNTAKMLIKADQHHLDLTALPTPESTPTLQQKRKPNRGSREWERNQNIINACTKDMPPMGSPVIPTDLPLRASPSHIPSVVVLPITQQGYQHEYVDQPKMSEVVAQMALEDQAATLEYKTIKEHLSSKSPNHGVNLVENLDSLPPKVPQREASLGPPGTSLSQTGLSKRLEMQHSSSYGLEYKRSYPTNSLTRSHQTTTLKRNNTNSSNSSHLSRNQSFGRGDNPPPAPQRVDSIQVHSSQPSGQAVTVSRQPSLNAYNSLTRSGLKRTPSLKPDVPPKPSFAPLSTSMKPNDACT
For the molecule B4, the binding entry in assay [3] was “binds”.
